In this series the target is eIF4H (UniProt Q15056). Briefly: competition with a labelled probe. To be noted: strand release by unlabelled (AG)10, low clamping vs eIF4A; 20 mM Hepes/KOH pH 7.5, 100 (mM) KCl, 1 mM MgCl2, 1 mM AMP-PNP, 1 mM TCEP, 0.1% DMSO, +/-50 uM silvestrol (10 uM in Fig 4a legend), 60 min, 25 C; recombinant protein; protein details: SUMO tag cleaved; label: 5' FAM.

The exact form of at least one protein or probe is not confirmed. Weaker means in comparison with the reference protein, sequence or condition of that experiment. At least one verdict was read from the data and is not stated in words by the source.

Regarding AGAGAGAGAGAGAGAGAGAG [(AG)10 ssRNA], the binding result was “binds more weakly”.

(Values after article PMC6886185.)
